{"sequences": {"note": "By UniProt entry, the sequences of proteins in these tests, tags left out. Where a name states a change or a piece, a line headed by the entry shows the natural chain unless it says otherwise. Residues count along the entry.", "UniProt P01033, residues 24-207": "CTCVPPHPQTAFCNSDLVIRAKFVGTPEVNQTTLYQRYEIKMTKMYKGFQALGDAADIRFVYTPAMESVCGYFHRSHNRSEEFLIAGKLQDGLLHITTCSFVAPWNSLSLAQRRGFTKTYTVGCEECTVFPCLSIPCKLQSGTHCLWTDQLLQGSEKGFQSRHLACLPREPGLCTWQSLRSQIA", "UniProt Q9UKP4": "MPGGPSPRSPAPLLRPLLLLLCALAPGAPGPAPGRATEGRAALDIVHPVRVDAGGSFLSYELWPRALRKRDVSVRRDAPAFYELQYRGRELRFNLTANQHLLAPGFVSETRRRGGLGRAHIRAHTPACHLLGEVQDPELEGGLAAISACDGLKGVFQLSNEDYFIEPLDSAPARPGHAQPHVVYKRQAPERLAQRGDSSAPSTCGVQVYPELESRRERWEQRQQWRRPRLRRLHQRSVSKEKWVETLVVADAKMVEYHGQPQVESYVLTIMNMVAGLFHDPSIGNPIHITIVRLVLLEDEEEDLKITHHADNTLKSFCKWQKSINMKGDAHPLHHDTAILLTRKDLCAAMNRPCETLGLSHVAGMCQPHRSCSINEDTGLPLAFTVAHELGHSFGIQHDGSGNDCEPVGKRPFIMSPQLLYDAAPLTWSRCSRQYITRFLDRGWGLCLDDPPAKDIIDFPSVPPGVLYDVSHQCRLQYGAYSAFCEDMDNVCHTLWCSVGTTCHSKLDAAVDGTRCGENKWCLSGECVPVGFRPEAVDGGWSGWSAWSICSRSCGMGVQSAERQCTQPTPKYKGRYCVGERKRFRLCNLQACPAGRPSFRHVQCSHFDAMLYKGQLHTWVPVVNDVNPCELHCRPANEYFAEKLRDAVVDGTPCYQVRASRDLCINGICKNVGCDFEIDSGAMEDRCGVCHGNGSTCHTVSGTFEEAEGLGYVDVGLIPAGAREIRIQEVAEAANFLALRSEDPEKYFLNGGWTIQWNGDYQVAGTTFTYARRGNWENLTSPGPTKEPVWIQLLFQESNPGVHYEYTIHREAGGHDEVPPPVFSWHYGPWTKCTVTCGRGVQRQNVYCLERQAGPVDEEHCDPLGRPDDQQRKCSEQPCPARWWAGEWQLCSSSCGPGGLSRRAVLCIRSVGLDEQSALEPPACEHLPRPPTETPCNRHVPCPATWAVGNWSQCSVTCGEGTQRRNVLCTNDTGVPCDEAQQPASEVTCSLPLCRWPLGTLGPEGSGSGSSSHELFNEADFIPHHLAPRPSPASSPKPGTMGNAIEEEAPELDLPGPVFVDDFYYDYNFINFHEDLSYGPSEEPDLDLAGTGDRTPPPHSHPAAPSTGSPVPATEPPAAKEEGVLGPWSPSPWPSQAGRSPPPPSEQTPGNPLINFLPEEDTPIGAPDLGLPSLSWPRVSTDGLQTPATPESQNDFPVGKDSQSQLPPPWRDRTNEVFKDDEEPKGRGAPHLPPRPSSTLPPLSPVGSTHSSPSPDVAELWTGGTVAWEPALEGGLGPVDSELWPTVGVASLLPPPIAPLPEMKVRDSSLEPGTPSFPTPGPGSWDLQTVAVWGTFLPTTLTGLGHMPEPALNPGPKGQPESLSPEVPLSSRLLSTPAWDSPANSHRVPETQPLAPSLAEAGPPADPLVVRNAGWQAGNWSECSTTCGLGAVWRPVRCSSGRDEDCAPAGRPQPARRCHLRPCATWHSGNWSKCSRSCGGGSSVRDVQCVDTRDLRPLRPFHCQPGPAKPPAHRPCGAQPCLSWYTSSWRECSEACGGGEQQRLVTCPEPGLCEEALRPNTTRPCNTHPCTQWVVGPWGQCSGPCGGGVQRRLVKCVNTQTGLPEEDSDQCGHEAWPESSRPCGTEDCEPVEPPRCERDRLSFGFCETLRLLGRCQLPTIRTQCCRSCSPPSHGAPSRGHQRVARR"}, "source": "paper doi:10.1101/2023.03.06.531428", "key": {"TIMP-1-HA (human) [1]": {"biological_target": "TIMP-1-HA (human) (UniProt P01033)", "assay": "AlphaScreen or HTRF"}, "TIMP-1-HA (human) [2]": {"biological_target": "TIMP-1-HA (human) (UniProt P01033)", "assay": "co-IP"}, "TIMP-1-HA (human) [3]": {"biological_target": "TIMP-1-HA (human) (UniProt P01033)", "assay": "co-IP", "remark": "listed apart in the source"}}, "note": "No constants are given. Whether binding was seen depends on the method and setting. A result given as binding can be weak or reduced; the word gives no strength. For part of these data: Binding seen in cells or lysates may run through a third protein."}
{"substance": "ADAMTS-7-FLAG (from UniProt Q9UKP4) (enzyme)", "values": [{"measurement": "binding", "setting": "TIMP-1-HA (human) [1]", "result": "binds"}]}
{"substance": "full-length ADAMTS-7 containing a C-terminal V5-tag (ADAMTS7-V5) (from UniProt Q9UKP4) (enzyme)", "values": [{"measurement": "binding", "setting": "TIMP-1-HA (human) [2]", "result": "binds"}, {"measurement": "binding", "setting": "TIMP-1-HA (human) [3]", "result": "binds"}]}
